Drawing on PMC10298584, this text covers binding for one molecule.

Protein sequences, listed by entry. Tags and fused reporters are not part of them.
UniProt Q8RY59: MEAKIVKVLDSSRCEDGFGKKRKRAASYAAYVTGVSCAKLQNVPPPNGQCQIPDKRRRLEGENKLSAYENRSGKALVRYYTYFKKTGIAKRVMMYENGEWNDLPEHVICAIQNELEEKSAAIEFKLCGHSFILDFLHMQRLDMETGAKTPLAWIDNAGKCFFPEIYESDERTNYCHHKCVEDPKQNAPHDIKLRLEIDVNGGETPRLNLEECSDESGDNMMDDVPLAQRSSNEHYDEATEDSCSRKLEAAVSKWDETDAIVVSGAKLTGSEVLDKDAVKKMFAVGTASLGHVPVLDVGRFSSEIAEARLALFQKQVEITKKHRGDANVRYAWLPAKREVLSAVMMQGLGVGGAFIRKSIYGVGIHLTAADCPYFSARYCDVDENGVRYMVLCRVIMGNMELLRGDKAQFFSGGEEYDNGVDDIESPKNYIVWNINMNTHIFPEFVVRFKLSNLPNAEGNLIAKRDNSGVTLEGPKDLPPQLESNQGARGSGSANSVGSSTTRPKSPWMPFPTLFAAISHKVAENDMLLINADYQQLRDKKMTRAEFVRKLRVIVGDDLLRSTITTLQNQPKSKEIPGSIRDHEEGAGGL

The test deals with RADICAL-INDUCED CELL DEATH 1 (RCD1), full-length, in pGBKT7 (Arabidopsis thaliana) (UniProt Q8RY59). In words: two-hybrid; RCD1 in pGBKT7, ANAC017 in pGADT7, yeast strain Y2HGold; growth on SD-Leu-Trp-His or SD-Ade-Leu-Trp-His.

These are yes or no findings as the source states them, for the method shown. Some entries that bind do so weakly or less than the wild type.

B1: Arabidopsis NAC domain-containing protein 17 (ANAC017), full-length, in pGADT7 (protein, UniProt Q9XIC5 1-557)
chain: MADSSPDSCFKGGKFSAPGFRFHPTDEELVMYYLKRKICRKRLRVNVIGVVDVYKMDPEELPGQSMLKTGDRQWFYFTPRSRKYPNAARSNRGTENGYWKATGKDRVIEYNSRSVGLKKTLVFYRGRAPSGERTDWVMHEYTMDEDELGRCKNPQEYYALYKLFKKSGAGPKNGEQYGAPFQEEEWVDDDNEDVNAIAVAVPEQPVVRYEDARRVDERRLFNPVILQLEDIDELLNGIPNAPGVPQRCIPQVNSEEELQSTLVNNSAREFLPNGQQYNRPSSFDSLETAEVTSAPLVFEKEDFIEMDDLLLIPEFGASSTEKAAQFSNHGEFDDFNEFDQLFHDVSMSLDMEPIDQGTSANLSSLSDSANYTSDQKQQLLYQQFQDQTPENQLNNIMDPSTTLNQITSDIWFEDDQAILFDQQQSFSGAFASPSSGVMPDSTNPTMSVNAQGHEIQNGGGTTSQFSSALWALMDSIPSTPASACEGPLNRTFVRMSSFSRMRFNGKANGTPVSTTIAKKGIRNRGFLLLSIVGALCAIFWVLVATVRVSGRSLLLKD
Turning to B1, the binding result is “binds”.
